Results reported in PubChem BioAssay AID2685 (National Center for Advancing Translational Sciences (NCATS), 2010).
The list shows a part of the results. The main result of the screen is listed elsewhere. These columns were measured beside it and carry no call. Compounds called inactive in the main read-out are mostly missing here. Words in brackets tell the shape of the fitted curve; partial curves, single points and poor fits give uncertain potencies.

Assay: qHTS Assay for Lipid Storage Modulators in Drosophila S3 Cells;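 as to cell number change: cells counted by Cell Tracker Red CMTPX staining in the red channel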
Details: BODIPY lipid droplet fluorescence, 18-24 h; for cell number change: measured here: cell count max response, cells fed with added oleic acid
Summary of the method: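 Drosophila S3 cells loaded with oleic acid (400 uM, as added) and compounds at several concentrations; lipid droplets imaged by 488-nm laser-scanning cytometry, 500–530 nm intensity and object ratio to cell channel. Percent activity normalized to 20 uM Triacsin C.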

[1] = measured here: lipid fluorescence (Fed channel) AC50, cells fed with added oleic acid
[2] = measured here: cell number channel AC50, cells fed with added oleic acid

SMILES	cell number change [%]	AC50 [1]	AC50 [2]
CCCc1c(O)nc(SCCN(CCC)CCC)[nH]c1=O	-2.17		
CCC(=O)NC1CC2CCCC(C1)N2Cc1ccc(C)cc1 (stereo unspecified)	3.15	0.58 µM [falling, single point]	
Cc1cccc2cc(C(c3nnnn3Cc3ccccc3)N3CCN(C)CC3)c(=O)[nH]c12 (stereo unspecified)	1.99	29.1 µM [rising, single point]	
Cc1cccc(CC(=O)NC2CCN(C)CC2)c1	-22	3.26 µM [falling, single point]	
Cc1c(CC(=O)NC(C)C)c(=O)oc2cc3c(cc12)CCC(C)(C)O3	-8.62		
CC1CC(C)CN(C(=O)C(Cc2ccccc2)NC(=O)c2ccccc2)C1 (stereo unspecified)	21	20.6 µM [rising, single point]	
Cc1ccc(-n2ncc3c2CCCC3NC(=O)c2ocnc2C)cc1C (stereo unspecified)	-39.6	16.4 µM [falling, partial curve]	0.82 µM [falling, full curve]
COc1ccc(C(=O)N(Cc2ccco2)C(C(=O)NC2CCCC2)c2ccc(O)cc2)cc1OC (stereo unspecified)		0.291 µM [rising, partial curve, poor fit]	
O=C(O)CCC(=O)Nc1nc(-c2ccccc2)cs1	8.28	6.51 µM [falling, single point]	
COc1ccc(NC(=O)c2ccc(OCC3CCCO3)cc2)cc1Cl (stereo unspecified)	43		5.17 µM [rising, partial curve]
Cc1nnc(NC(=O)c2ccc(-c3ccc(Cl)cc3)o2)s1	13.4		
Cc1oc(-c2cc(F)ccc2F)nc1CN1CCN(c2cnccn2)CC1	0.894	2.06 µM [falling, partial curve]	3.66 µM [falling, partial curve]
CCN1CCN(S(=O)(=O)c2ccc(OC)c3ccccc23)CC1	-3.16	0.092 µM [falling, full curve, poor fit]	
NC(=O)C1CCN(C(=O)c2ccc(NC3=NC4CS(=O)(=O)CC4S3)cc2)CC1 (stereo unspecified)	-6.88	0.206 µM [falling, full curve]	
Cc1snc2sc(C(=O)c3ccc(Br)cc3)c(N)c12		3.26 µM [rising, partial curve]	1.64 µM [rising, partial curve]
CC1CCN(c2ccc(NC(=O)c3ccccc3[N+](=O)[O-])cc2)CC1	127	29.1 µM [rising, single point]	25.9 µM [rising, partial curve]
CCOC(=O)C1=C(CS(=O)(=O)c2ccccc2)NC(=O)NC1c1ccccc1 (stereo unspecified)	0.646	8.2 µM [rising, partial curve]	
Cc1ccc2c(c1)c(CC(=O)Nc1ccc(C)c(F)c1)c(C(=O)O)n2C	-48.5		20.6 µM [falling, single point]
Cc1cc(Br)ccc1NCc1ccccn1	-34.2		14.6 µM [falling, partial curve]
CCS(=O)(=O)c1nc(S(=O)(=O)c2ccc(C)cc2)c(NCCCN2CCOCC2)s1	31.7		23.1 µM [rising, single point]
CCOc1ccc(Cl)cc1S(=O)(=O)N1CCN(c2ccc(C)c(C)c2)CC1			2.06 µM [rising, single point]

SMILES	cell number change [%]	AC50 [1]	AC50 [2]
CC1(C)OC(=O)CC1C(=O)NCc1ccccc1 (stereo unspecified)		25.9 µM [falling, single point]	
Cc1ccsc1C(=O)OCC(=O)NC1CCCC1		0.0058 µM [falling, full curve, poor fit]	
O=C(CCn1c(=O)c2ccccc2n(Cc2cccnc2)c1=O)NCc1ccc2c(c1)OCO2	9.69	4.11 µM [rising, full curve]	
CCc1ccc2c(c1)cc(CN(Cc1ccco1)C(C)=O)c1nnnn12	38.4		32.6 µM [rising, single point]
Cc1ccc(-c2csc(NC(=O)CCNC(=O)c3ccccc3Cl)n2)cc1	45.6		29.1 µM [rising, single point]
Cc1cccc(C)c1NC(=O)CN1CCN(C(=O)CN2C(=O)NC3(CCCCC3C)C2=O)CC1 (stereo unspecified)	-5.89	0.092 µM [falling, full curve, poor fit]	
Cc1ccsc1/C=N/n1cnc2sc(C)c(C)c2c1=O	-13.5		
CCOc1cc(C2C(C#N)=C(N)Oc3cc(N)ccc32)ccc1O (stereo unspecified)	-31.2		0.0731 µM [falling, full curve, poor fit]
CCc1nc2ccccc2c(C(=O)Oc2cccc3cccnc23)c1C	-27.2	32.6 µM [falling, single point]	
CC(C)(C)C(=O)Cn1c[n+](N)cn1	-34.6	11.6 µM [falling, partial curve]	
COc1c(/C=N/NC(=O)c2ccccc2O)c(CCN(C)C(C)=O)cc2c1OCO2	-3.95	0.13 µM [rising, full curve]	
CCCCn1c(SCC(=O)O)nc2ccccc21		0.146 µM [rising, full curve, poor fit]	
Nc1nc(SCC(=O)NCc2ccco2)[nH]c(=O)c1-c1ccccc1	-4.72	0.0231 µM [falling, full curve, poor fit]	
Cc1cc(N2CCOCC2)nc2ccc(NC(=O)CCC(=O)N3CCCCC3)cc12	11.9	18.4 µM [rising, single point]	
COC(=O)N/N=C/c1ccc(OS(=O)(=O)c2ccc(C)cc2)c(OC)c1	124		29.1 µM [rising, partial curve]
O=C(COC(=O)c1ccco1)NCCc1ccc(Cl)cc1	-0.389	9.2 µM [rising, partial curve]	
CS(=O)(=O)N(CC(=O)NCCSCc1cccc(Cl)c1)c1ccccc1F	-10.6	29.1 µM [falling, single point]	
Cc1ccccc1C(=O)N1CCC(C(=O)Nc2ccc(C)c(S(=O)(=O)N3CCCCC3)c2)CC1	-2.33	29.1 µM [falling, partial curve, poor fit]	0.731 µM [falling, single point]
CCc1ccc(OCC(O)CN2CCC(CN3C(=O)c4cccc5cccc(c45)C3=O)CC2)cc1 (stereo unspecified)	9.34	32.6 µM [rising, partial curve, poor fit]	
Cc1ccc(C2C(C#N)=C(N)Oc3cc(C)oc(=O)c32)o1 (stereo unspecified)	-36.9	29.1 µM [falling, single point]	29.1 µM [falling, single point]
O=C(/C=C/c1ccc(N2CCC(c3ccccc3)=N2)cc1)c1ccccc1	-33.7	4.11 µM [falling, single point]	18.4 µM [falling, single point]

SMILES	cell number change [%]	AC50 [1]	AC50 [2]
C=CCN(CC=C)c1nc2ccccc2nc1C(C#N)C(=O)OCCOC (stereo unspecified)	5.64		
Cc1cc(C)n2nc(SC(C)C(=O)Nc3ccc(Cl)cn3)nc2n1 (stereo unspecified)	13.1	0.517 µM [rising, single point]	
O=C(Oc1cccc(Br)c1)c1cccnc1	-15	32.6 µM [rising, single point]	
Brc1ccc(C2=CC(c3cccs3)n3ncnc3N2)cc1 (stereo unspecified)	-0.633	29.1 µM [falling, single point]	
CCOC(=O)c1sc(NC(=O)Cc2ccc(F)cc2)nc1C	-33.8	23.1 µM [falling, partial curve]	16.4 µM [falling, partial curve]
NS(=O)(=O)c1ccc(CCNC(=O)CN2CCC(Cc3ccccc3)CC2)cc1			6.51 µM [falling, single point]
COc1ccc(C2CC(c3cccs3)=NN2C(=O)CSc2nnnn2C)cc1OC (stereo unspecified)	5.26	0.184 µM [rising, full curve]	
CC1(C)Cc2cccc(OCC(=O)NCCc3ccc(S(N)(=O)=O)cc3)c2O1	21.1	25.9 µM [rising, single point]	
CCC(COC(=O)Nc1cccc(C)c1C)NC(=O)OCC(C)C (stereo unspecified)	-4.88	0.366 µM [rising, full curve]	
Cc1c(C(=O)N(C)C2CCCCC2)sc2ncnc(N3CCN(c4ccccc4)CC3)c12		13 µM [falling, partial curve]	
O=C(CN1CCOc2ccccc21)NC1CCN(Cc2ccccc2)CC1		0.116 µM [falling, full curve]	
Cc1nn2c(-c3ccncc3)nnc2c2ccccc12		0.82 µM [rising, partial curve]	
COCCOCCn1c(/C=C/c2ccccc2)nc2ccccc21	15.6	0.58 µM [rising, single point]	
NNC(=S)NCCc1ccccc1	-13.5		6.51 µM [falling, single point]
Cc1cc(C)c2nc(NNC(=O)c3ccc(S(=O)(=O)N4CCCCC4)cc3)sc2c1	-15.8	1.03 µM [rising, partial curve]	
O=C1Nc2ccccc2/C1=C/C(=O)c1cccs1	-91.5	29.1 µM [falling, single point]	20.6 µM [falling, single point]
COC(=O)CN(c1ccccc1F)S(=O)(=O)c1ccc(C)cc1	7.6	1.46 µM [rising, full curve, poor fit]	
CC(=O)Nc1ccc(S(=O)(=O)NCC(=O)NNC(=O)c2csc(N3CCOCC3)n2)cc1	-17	13 µM [falling, partial curve]	
Cc1cc(C)c(O)c(-c2cc(C(=O)Nc3ccc(S(=O)(=O)N4CCOCC4)cc3)[nH]n2)c1	-25.2	1.46 µM [rising, partial curve]	

Grouped by structure: the entries above with a COOH group
SMILES	cell number change [%]	AC50 [1]	AC50 [2]
O=C(O)CCC(=O)Nc1nc(-c2ccccc2)cs1	8.28	6.51 µM [falling, single point]	
Cc1ccc2c(c1)c(CC(=O)Nc1ccc(C)c(F)c1)c(C(=O)O)n2C	-48.5		20.6 µM [falling, single point]
CCCCn1c(SCC(=O)O)nc2ccccc21		0.146 µM [rising, full curve, poor fit]	
